These are yes or no findings as the source states them, for the method shown. In cells and extracts the contact can be indirect. These calls come from enrichment with a bait or labelling near it, and not all partners need be listed.
Target: Olfactomedin-4 (OLFM4) (UniProt Q6UX06)
Test: affinity purification with mass spectrometry; Co-IP with the OLFM4 antibody (14369S, CST) and Protein A/G magnetic beads, then mass spectrometry; cells not given

The chains behind the UniProt entries cited, without tags or fusion partners. Residues count along the entry.
UniProt Q6UX06, residues 21-510: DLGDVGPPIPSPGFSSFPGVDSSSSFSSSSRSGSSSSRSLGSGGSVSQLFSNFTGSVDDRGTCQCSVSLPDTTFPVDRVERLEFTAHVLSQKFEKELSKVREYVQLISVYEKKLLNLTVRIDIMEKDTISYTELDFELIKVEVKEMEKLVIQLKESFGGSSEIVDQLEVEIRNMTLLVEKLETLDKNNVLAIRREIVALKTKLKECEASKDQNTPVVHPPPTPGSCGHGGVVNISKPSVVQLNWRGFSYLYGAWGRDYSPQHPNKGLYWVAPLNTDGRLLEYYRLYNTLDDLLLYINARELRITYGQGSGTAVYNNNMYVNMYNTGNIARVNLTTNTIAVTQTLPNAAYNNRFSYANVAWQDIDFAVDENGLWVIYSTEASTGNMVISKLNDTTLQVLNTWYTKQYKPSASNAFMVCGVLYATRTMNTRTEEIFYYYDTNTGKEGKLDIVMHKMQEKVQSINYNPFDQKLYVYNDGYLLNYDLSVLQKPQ
UniProt P21333: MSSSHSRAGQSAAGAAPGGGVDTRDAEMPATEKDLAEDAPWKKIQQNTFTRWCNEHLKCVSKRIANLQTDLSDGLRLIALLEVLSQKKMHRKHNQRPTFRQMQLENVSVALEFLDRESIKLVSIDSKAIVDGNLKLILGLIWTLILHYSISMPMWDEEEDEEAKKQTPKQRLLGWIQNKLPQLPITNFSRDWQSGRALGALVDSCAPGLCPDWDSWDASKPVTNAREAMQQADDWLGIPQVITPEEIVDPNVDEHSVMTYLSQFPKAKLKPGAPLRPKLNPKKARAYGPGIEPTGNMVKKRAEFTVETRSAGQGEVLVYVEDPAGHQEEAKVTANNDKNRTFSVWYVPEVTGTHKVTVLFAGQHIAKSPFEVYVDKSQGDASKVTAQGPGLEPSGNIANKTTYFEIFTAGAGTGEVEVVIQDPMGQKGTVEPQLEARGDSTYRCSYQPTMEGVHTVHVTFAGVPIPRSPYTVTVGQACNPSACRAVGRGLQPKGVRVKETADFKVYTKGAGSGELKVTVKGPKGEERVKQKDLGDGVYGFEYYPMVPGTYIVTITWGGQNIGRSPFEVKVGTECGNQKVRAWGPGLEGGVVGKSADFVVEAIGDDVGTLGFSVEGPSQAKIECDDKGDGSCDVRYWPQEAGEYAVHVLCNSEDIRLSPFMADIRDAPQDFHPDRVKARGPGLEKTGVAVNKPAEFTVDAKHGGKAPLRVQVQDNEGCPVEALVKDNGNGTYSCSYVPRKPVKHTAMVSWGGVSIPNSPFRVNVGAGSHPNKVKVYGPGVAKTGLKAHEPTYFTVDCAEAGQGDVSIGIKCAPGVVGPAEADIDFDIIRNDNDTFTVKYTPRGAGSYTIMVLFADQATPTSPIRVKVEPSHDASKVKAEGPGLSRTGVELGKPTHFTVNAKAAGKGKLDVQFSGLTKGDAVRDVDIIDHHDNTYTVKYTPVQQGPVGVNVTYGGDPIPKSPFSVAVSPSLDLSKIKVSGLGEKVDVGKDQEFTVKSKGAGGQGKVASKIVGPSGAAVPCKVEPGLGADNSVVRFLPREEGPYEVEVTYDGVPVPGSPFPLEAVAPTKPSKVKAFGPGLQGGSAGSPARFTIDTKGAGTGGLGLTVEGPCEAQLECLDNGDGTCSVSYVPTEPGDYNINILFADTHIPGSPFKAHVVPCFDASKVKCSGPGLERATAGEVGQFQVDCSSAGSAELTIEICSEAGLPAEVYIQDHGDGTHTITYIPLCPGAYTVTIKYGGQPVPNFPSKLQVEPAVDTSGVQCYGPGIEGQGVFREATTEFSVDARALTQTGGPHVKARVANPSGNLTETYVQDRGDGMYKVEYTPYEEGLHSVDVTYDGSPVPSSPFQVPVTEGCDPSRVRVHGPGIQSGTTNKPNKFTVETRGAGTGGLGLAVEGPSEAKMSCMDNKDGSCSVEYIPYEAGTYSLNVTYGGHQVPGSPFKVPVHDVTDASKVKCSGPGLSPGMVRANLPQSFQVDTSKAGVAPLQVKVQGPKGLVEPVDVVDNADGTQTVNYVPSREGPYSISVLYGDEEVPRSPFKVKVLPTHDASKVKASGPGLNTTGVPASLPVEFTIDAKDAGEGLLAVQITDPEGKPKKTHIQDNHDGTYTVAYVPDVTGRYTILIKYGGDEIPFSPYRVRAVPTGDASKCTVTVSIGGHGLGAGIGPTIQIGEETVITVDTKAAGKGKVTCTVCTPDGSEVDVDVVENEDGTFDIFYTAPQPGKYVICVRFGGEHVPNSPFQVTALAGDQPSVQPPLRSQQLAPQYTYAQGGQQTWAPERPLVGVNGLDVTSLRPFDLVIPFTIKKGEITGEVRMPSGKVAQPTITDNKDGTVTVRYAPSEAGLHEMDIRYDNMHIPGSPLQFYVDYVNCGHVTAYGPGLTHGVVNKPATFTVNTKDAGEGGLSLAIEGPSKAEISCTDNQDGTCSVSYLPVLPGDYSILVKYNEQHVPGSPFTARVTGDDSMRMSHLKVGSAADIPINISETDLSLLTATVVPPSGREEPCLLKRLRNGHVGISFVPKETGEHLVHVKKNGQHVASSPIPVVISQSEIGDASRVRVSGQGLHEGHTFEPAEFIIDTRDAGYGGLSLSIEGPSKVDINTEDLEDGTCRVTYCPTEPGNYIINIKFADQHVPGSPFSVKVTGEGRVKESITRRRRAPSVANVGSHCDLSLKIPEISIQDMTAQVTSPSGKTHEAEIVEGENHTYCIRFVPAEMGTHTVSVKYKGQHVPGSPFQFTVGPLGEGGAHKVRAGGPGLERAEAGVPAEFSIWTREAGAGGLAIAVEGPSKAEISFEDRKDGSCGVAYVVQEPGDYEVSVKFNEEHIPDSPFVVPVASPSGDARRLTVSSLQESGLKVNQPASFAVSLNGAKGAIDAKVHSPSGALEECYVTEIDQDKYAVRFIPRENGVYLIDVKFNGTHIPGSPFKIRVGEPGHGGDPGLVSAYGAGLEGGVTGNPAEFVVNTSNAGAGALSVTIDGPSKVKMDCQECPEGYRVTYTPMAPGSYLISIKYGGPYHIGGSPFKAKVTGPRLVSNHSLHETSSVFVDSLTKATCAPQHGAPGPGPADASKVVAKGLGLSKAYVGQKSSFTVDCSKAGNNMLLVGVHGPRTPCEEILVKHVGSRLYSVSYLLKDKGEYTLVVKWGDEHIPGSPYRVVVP
UniProt P35579: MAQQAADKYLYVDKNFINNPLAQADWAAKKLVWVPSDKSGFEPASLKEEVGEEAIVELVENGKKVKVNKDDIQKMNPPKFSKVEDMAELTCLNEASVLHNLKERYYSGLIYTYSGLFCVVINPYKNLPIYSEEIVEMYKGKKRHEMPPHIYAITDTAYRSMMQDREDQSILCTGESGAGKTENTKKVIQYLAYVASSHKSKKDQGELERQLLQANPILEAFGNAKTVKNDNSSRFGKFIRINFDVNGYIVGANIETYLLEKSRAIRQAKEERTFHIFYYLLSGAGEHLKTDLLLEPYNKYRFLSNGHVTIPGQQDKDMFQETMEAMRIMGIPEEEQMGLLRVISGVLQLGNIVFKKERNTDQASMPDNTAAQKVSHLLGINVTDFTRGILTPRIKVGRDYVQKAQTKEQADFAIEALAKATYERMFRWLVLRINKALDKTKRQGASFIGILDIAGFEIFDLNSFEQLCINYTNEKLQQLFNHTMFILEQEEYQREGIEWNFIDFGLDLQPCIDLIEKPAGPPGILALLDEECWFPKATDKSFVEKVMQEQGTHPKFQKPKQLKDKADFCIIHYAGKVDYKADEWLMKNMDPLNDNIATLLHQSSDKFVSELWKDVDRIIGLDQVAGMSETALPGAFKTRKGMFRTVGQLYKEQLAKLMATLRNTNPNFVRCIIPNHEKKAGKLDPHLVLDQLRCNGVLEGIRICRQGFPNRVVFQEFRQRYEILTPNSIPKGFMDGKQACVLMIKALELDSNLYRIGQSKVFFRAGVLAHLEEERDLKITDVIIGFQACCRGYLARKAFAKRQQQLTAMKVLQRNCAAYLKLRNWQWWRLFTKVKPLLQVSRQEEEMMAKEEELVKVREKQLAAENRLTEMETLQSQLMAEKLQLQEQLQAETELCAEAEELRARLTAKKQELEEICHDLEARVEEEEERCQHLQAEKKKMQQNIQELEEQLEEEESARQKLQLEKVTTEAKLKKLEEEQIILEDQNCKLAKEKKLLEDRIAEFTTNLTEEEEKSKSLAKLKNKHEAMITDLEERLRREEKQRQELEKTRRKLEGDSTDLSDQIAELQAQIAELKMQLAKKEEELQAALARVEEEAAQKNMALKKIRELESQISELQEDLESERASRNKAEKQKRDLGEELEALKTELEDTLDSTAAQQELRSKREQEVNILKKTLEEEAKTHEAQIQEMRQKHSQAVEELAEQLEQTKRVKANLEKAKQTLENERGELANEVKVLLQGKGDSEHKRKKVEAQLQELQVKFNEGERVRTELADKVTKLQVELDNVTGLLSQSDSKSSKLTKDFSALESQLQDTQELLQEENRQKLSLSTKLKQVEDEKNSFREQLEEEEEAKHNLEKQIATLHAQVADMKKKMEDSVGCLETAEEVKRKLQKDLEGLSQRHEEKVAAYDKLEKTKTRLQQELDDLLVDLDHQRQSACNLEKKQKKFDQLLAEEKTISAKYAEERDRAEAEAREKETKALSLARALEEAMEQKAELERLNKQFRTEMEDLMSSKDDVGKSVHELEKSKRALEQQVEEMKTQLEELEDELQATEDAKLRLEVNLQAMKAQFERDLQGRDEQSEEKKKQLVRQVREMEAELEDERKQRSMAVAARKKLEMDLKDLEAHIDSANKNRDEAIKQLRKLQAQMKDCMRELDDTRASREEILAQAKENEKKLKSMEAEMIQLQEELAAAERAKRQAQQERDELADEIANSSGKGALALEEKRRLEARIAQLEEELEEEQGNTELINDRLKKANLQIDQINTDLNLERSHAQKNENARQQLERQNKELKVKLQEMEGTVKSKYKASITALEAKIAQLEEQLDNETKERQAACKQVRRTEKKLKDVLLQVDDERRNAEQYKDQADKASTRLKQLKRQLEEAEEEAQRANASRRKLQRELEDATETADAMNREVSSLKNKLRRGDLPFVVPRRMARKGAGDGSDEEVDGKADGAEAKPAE

binding, binds:
FLNA (from UniProt P21333 1-2647), Myosin heavy chain 9 (MYH9) (from UniProt P35579 1-1960), MYH10 (from UniProt P35580 1-1976)
